{"sequences": {"note": "Protein sequences, listed by entry. Tags and fused reporters are not part of them. Lines headed by an entry give the natural chain unless they say otherwise; changes in a name come on top.", "UniProt Q01638": "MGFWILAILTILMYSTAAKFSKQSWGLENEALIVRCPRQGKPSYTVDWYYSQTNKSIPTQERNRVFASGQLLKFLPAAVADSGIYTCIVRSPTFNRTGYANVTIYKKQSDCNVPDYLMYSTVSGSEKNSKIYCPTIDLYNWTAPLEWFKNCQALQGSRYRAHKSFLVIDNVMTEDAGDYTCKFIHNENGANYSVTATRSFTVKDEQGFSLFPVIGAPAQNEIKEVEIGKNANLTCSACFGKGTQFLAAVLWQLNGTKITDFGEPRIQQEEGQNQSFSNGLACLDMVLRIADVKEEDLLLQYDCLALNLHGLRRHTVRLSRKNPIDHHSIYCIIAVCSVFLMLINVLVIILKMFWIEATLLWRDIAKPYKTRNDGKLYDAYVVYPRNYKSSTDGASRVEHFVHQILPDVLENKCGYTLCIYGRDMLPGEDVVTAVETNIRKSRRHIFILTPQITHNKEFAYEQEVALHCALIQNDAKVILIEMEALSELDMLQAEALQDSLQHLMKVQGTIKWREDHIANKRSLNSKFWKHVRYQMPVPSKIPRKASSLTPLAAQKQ"}, "source": "PubChem BioAssay AID1259354", "about": "(Paczesny and Yang Labs, IUPUI and University of Michigan, 2018)", "note": "The whole screen tested about 78,000 compounds, of which about 1,800 (2.3%) were called active. Inconclusive means that the source gave no clear call. Such entries were picked first, then a sample of the others. Rule as the data show it: active = inhibition above about 30%; inconclusive = mostly about 10% to 28%; inactive = weaker than that.", "data": [{"target": "Interleukin-1 receptor-like 1 (Homo sapiens) (UniProt Q01638)", "assay": "blocks human ST2 binding to IL-33, primary screen, biochemical, AlphaLISA (AID 1259354)", "details": "AlphaLISA ST2-Fc/biotin-IL-33 interaction, 1 h; at 17 µM, stronger effect = higher value", "values": [{"smiles": "O=C(Nc1cccc(-c2nc3ccccc3s2)c1)c1cc(=O)c2ccccc2o1", "inhibition": "inconclusive: 12%"}, {"smiles": "O=C(Nc1nnc(-c2ccc(Cl)s2)o1)c1ccc(S(=O)(=O)N2CCCCC2)cc1", "inhibition": "inconclusive: 15%"}, {"smiles": "CCCc1nc(CN(C)C(=O)c2c(O)cccc2O)no1", "inhibition": "inactive"}, {"smiles": "O=C(COc1ccccc1Cl)Nc1cccc(-c2nc3ncccc3o2)c1", "inhibition": "inconclusive: 18%"}, {"smiles": "CNC(=O)CCN(C)Cc1cc2n(n1)CCNC2", "inhibition": "inactive"}, {"smiles": "O=C(NCc1ccccc1)c1ccc2nc3ccccc3c(=O)n2c1", "inhibition": "inconclusive: 13%"}, {"smiles": "COc1ccc(NC(=O)c2oc3ccccc3c2NC(=O)c2cccs2)c(OC)c1", "inhibition": "inactive"}, {"smiles": "CCOc1ccc(C2Oc3nc(SC)nnc3-c3ccccc3N2C(C)=O)cc1C", "note": "(stereo unspecified)", "inhibition": "inactive"}, {"smiles": "C/C=C/c1ccc(OCCCOc2ccc(C=O)cc2OC)c(OC)c1", "inhibition": "inconclusive: 11%"}, {"smiles": "O=C(Nc1nc2c(s1)CCc1ccccc1-2)c1ccc(S(=O)(=O)N2CCCCC2)cc1", "inhibition": "inconclusive: 11%"}, {"smiles": "CCN(CC)CCNC(=O)c1cc(-c2cccs2)nc2ccccc12", "inhibition": "inconclusive: 22%"}, {"smiles": "O=S(=O)(NC[C@H]1O[C@@H](CO)[C@@H](O)[C@H]1N1CCN(c2ccc(F)cc2)CC1)c1ccc(F)cc1", "inhibition": "inconclusive: 11%"}, {"smiles": "COc1ccc(OC)c(NC(=O)C2CCCN2C(=O)C2CCC(C)CC2)c1", "note": "(stereo unspecified)", "inhibition": "inconclusive: 13%"}, {"smiles": "N#Cc1cc2c(nc1SCC(=O)Nc1cccc(C(F)(F)F)c1)CCC2", "inhibition": "inconclusive: 15%"}, {"smiles": "CCOc1cc(C2NC(=O)NC(C)=C2C(=O)OCCOC(C)C)ccc1O", "note": "(stereo unspecified)", "inhibition": "inactive"}, {"smiles": "O=C1CCCC2=C1C(c1ccc(F)cc1)Nc1ccccc1N2", "note": "(stereo unspecified)", "inhibition": "inactive"}, {"smiles": "CCCCc1nc(SCC(=O)Nc2ccc(Br)cn2)n[nH]1", "inhibition": "inactive"}, {"smiles": "OC1CCCN(Cc2ccc(Cl)cc2Cl)C1", "note": "(stereo unspecified)", "inhibition": "inactive"}, {"smiles": "CC1=NN(c2ccc(Cl)c(C(=O)O)c2)C(=O)/C1=C\\c1ccc(Cl)cc1", "inhibition": "active: 48%"}, {"smiles": "COc1ccc2cc(C3OCCO3)c(Cl)nc2c1", "inhibition": "inconclusive: 15%"}, {"smiles": "O=C(O)C1Sc2c(sc(=O)n2-c2ccccc2)C2c3ccccc3OC(=O)C12", "note": "(stereo unspecified)", "inhibition": "inconclusive: 13%"}, {"smiles": "Cc1cnc(C)c(-c2cc(O)c3c(c2)CN(CCCn2ccnc2)CCO3)n1", "inhibition": "inconclusive: 17%"}, {"smiles": "Cc1cccc2[nH]c(CCN(C)C(=O)c3ccoc3)nc12", "inhibition": "inconclusive: 11%"}, {"smiles": "Cc1nc(N2CCN(c3ccccn3)CC2)c2c(C)c(C(=O)N3CCOCC3)sc2n1", "inhibition": "inconclusive: 14%"}, {"smiles": "CN1C[C@@H](NC(=O)c2ccc(C(C)(C)C)cc2)C[C@H]1c1nc(-c2cncnc2)no1", "inhibition": "inconclusive: 16%"}, {"smiles": "CCCNc1ncc(-c2nccn2CC2CCOCC2)cn1", "inhibition": "inconclusive: 21%"}, {"smiles": "COC(=O)C1CCN(C(=O)CC[C@H]2CNC(=O)[C@H]3NCC[C@H]3N2C)CC1", "inhibition": "inactive"}, {"smiles": "CCc1cc(C(=O)N2CCCC(c3nc(C)ncc3-c3cccc(C)c3)C2)n(C)n1", "note": "(stereo unspecified)", "inhibition": "inconclusive: 13%"}, {"smiles": "Cc1ccc(NC(=O)CCCn2nc([N+](=O)[O-])c(Cl)c2C)cc1", "inhibition": "inactive"}, {"smiles": "O=C(CS(=O)(=O)c1cn(Cc2ccc(Cl)cc2)c2ccccc12)N1CCCc2ccccc21", "inhibition": "inactive"}, {"smiles": "Cc1ccc(C(c2ccc(C)o2)c2ccccc2Br)o1", "inhibition": "inconclusive: 18%"}, {"smiles": "O=C(CSc1nc2c(c(=O)n1-c1ccc(Cl)cc1)SCC2)NC1CCCCC1", "inhibition": "inactive"}, {"smiles": "O=S(=O)(c1ccccc1)c1nc(-c2ccccc2F)oc1N1CCCCC1", "inhibition": "active: 32%"}, {"smiles": "Brc1cccc(OCCCCN2CCOCC2)c1", "inhibition": "inactive"}, {"smiles": "Cc1cc(C)c(CN2CCOC3(CNCCOC3)C2)c(-n2cccn2)c1", "note": "(stereo unspecified)", "inhibition": "inactive"}, {"smiles": "CSc1cccc(CN(C)C(=O)c2cn(Cc3ccc(F)cc3)nn2)c1", "inhibition": "inconclusive: 16%"}, {"smiles": "COc1cc(-c2ncnn2-c2cccc(Cl)c2C)cc(OC)c1OC", "inhibition": "active: 33%"}, {"smiles": "CCOC(=O)c1sc2nc(C)nc(Nc3ccc(F)cc3)c2c1C", "inhibition": "inactive"}, {"smiles": "Cc1noc(C)c1C1CCCN1Cc1ccc(C#CC(C)(C)O)s1", "note": "(stereo unspecified)", "inhibition": "inconclusive: 11%"}, {"smiles": "COCCN(CC1CCN(Cc2ccccc2F)CC1)C(=O)c1ccnc2ccc(C)cc12", "inhibition": "inactive"}, {"smiles": "O=C(NCCc1nc2ccccc2n1Cc1c(F)cccc1Cl)c1cccs1", "inhibition": "inactive"}, {"smiles": "COC(=O)[C@@H]1CN(C(=O)c2cccs2)CCN1C(=O)c1cccnc1", "inhibition": "inactive"}, {"smiles": "CN(C)C[C@H]1O[C@@H](CO)[C@@H](O)[C@H]1N1CCN(c2ccc(F)cc2)CC1", "inhibition": "inconclusive: 23%"}, {"smiles": "NC(N)=Nc1nc2ccccc2[nH]1", "inhibition": "inconclusive: 14%"}, {"smiles": "NCC1CCN(Cc2ccc(C#CCO)cc2)C1", "note": "(stereo unspecified)", "inhibition": "inconclusive: 15%"}, {"smiles": "COc1cc2c(cc1CN(C)C(C)c1ccncc1)OCO2", "note": "(stereo unspecified)", "inhibition": "inconclusive: 13%"}, {"smiles": "CC(C)c1ccc(CN2CCCC3(CCN(C(=O)c4ccc5nc[nH]c5c4)C3)C2)cc1", "note": "(stereo unspecified)", "inhibition": "inactive"}, {"smiles": "CC(=O)OCC1=CCCC2[C@@]1(C)CC[C@@H](C)[C@]2(C)CCC(C)CC(=O)O", "note": "(stereo partly specified)", "inhibition": "inconclusive: 13%"}, {"smiles": "O=C(Cc1ccc(F)cc1)N1CCCC1", "inhibition": "inconclusive: 23%"}, {"smiles": "COc1cccc(N2CCN(Cc3sccc3C)CC2)c1", "inhibition": "inconclusive: 11%"}, {"smiles": "O=c1c(N=Cc2ccccc2)cc2[nH]c3ccccc3c2n1-c1ccccc1", "inhibition": "inconclusive: 14%"}, {"smiles": "COc1ccccc1N1CCN(Cc2sccc2C)CC1", "inhibition": "inactive"}, {"smiles": "CNC(=O)C1CCC(Cn2c(=O)c3sccc3n(CC(=O)Nc3ccc(Cl)cc3)c2=O)CC1", "note": "(stereo unspecified)", "inhibition": "inconclusive: 18%"}, {"smiles": "CCn1cncc1CNC(=O)c1coc(COc2cccc(F)c2F)n1", "inhibition": "inconclusive: 26%"}, {"smiles": "CCSc1nc(CC(=O)NCc2sc(C)nc2CC)cs1", "inhibition": "active: 31%"}, {"smiles": "CCn1c(CC2CCNCC2)nn(Cc2coc(C)n2)c1=O", "inhibition": "inactive"}, {"smiles": "CN1[C@@H](CCC(=O)NCc2cccnc2)CNC(=O)[C@@H]2[C@H]1CCN2Cc1ccc(O)cc1", "inhibition": "inconclusive: 13%"}, {"smiles": "CCCN(CCC)CCNC(=O)c1cnc(N2CCN(c3ccccn3)CC2)c2ccccc12", "inhibition": "inconclusive: 19%"}, {"smiles": "Cc1cccnc1-c1ccc2c(c1)CC(CNC(=O)/C=C/c1ccc(F)cc1F)O2", "note": "(stereo unspecified)", "inhibition": "inconclusive: 16%"}, {"smiles": "Oc1cccc(-c2cc(CC3(NCc4ccc(F)cc4)COC3)no2)c1", "inhibition": "inactive"}, {"smiles": "CN(C)c1ccc(-c2noc([C@@H]3CCCN3CC(C)(C)C)n2)cn1", "inhibition": "inconclusive: 10%"}, {"smiles": "c1ccc(N=c2scc(-c3ccccc3)n2Cc2ccco2)cc1", "inhibition": "active: 62%"}, {"smiles": "CN1C[C@@H](NC(=O)c2ccc(C#N)cc2)C[C@H]1c1nc(-c2ccc(OC(F)(F)F)cc2)no1", "inhibition": "inconclusive: 11%"}, {"smiles": "CN1C[C@@H](NC(=O)Nc2ccccc2)C[C@H]1c1nc(-c2ccc(OC(F)(F)F)cc2)no1", "inhibition": "inactive"}, {"smiles": "COc1ccc(Cc2noc(/C=C/c3ccc(C)cc3)n2)cc1OC", "inhibition": "inconclusive: 16%"}, {"smiles": "CN1CCN(C(=O)[C@H]2C[C@H](C(=O)O)CN(Cc3cccnc3)C2)CC1", "inhibition": "inconclusive: 16%"}, {"smiles": "COc1ccc(CN2CCC(N3CCN(CCO)CC3)CC2)cc1OC", "inhibition": "inactive"}, {"smiles": "O=C(O)COCC(=O)N1CC[C@H](c2nc3ccccc3[nH]2)C1", "inhibition": "inactive"}, {"smiles": "O=S(=O)(Nc1ccc(NS(=O)(=O)c2ccccc2)c(Cl)c1)c1ccccc1", "inhibition": "inconclusive: 11%"}, {"smiles": "O=C1NC(=Nc2ccccc2Cl)S/C1=C/c1cccc([N+](=O)[O-])c1", "inhibition": "inconclusive: 29%"}, {"smiles": "COc1ccc(C=Nc2ccc(O)cc2)c(OC)c1", "inhibition": "active: 32%"}, {"smiles": "CN(C)c1ncccc1CNC(=O)Cc1cn(C)c2ccccc12", "inhibition": "inconclusive: 21%"}, {"smiles": "N#Cc1c(-c2ccccc2)no[n+]1[O-]", "inhibition": "inconclusive: 25%"}, {"smiles": "CN1CC2(CCN(C(=O)CCNC(=O)c3ccc(F)cc3)C2)OC1=O", "note": "(stereo unspecified)", "inhibition": "inconclusive: 16%"}, {"smiles": "COc1cc(NC(=O)C(NC(=O)C2CCC(C)CC2)C(C)C)cc(OC)c1OC", "note": "(stereo unspecified)", "inhibition": "inconclusive: 13%"}, {"smiles": "O=C(NCCc1c[nH]c2ccccc12)c1cccn2c(=O)c3sccc3nc12", "inhibition": "inactive"}, {"smiles": "Cn1c(=O)cc(SCC(=O)NC2CCCc3ccccc32)c2ccc(Cl)cc21", "note": "(stereo unspecified)", "inhibition": "inconclusive: 13%"}, {"smiles": "COc1cc(OC)cc(C(=O)n2nc(N)c3cc4cc(OC)ccc4nc32)c1", "inhibition": "inconclusive: 26%"}, {"smiles": "COc1cccc(OC)c1C(=O)Nc1c2c(nn1C(C)(C)C)CSC2", "inhibition": "inconclusive: 12%"}, {"smiles": "O=C1CC(c2ccccc2)=NN1c1ccc([N+](=O)[O-])cc1", "inhibition": "active: 43%"}, {"smiles": "O=C(O)C[C@@H]1CCN(C(=O)Nc2ccc(OC(F)(F)F)cc2)C[C@@H]1CCN1C[C@@H]2C[C@H](C1)c1cccc(=O)n1C2", "inhibition": "inconclusive: 11%"}, {"smiles": "CC(C)CC(O)C1CCN(C2CCC3(CCNCC3)CC2)CC1", "note": "(stereo unspecified)", "inhibition": "inactive"}, {"smiles": "CN(CCc1ccccn1)Cc1ccccc1[N+](=O)[O-]", "inhibition": "inconclusive: 11%"}, {"smiles": "CCSc1nnnn1-c1ccc2c(c1)OCO2", "inhibition": "inactive"}, {"smiles": "Cc1nnsc1C(=O)NCc1cnn2ccccc12", "inhibition": "inactive"}, {"smiles": "O=C1N=c2ccccc2=C1c1sc(Nc2ccc(Br)cc2)nc1O", "inhibition": "active: 40%"}, {"smiles": "CCOc1ccccc1CN1CCN(CC2=Cc3cc(OC)ccc3OC2)CC1CCO", "note": "(stereo unspecified)", "inhibition": "inconclusive: 10%"}, {"smiles": "Cc1cccc(NC(=O)c2ccc(F)cc2)n1", "inhibition": "inconclusive: 18%"}, {"smiles": "Cc1cnn(-c2cnn3cccnc23)c1", "inhibition": "inactive"}, {"smiles": "Cc1ccc(NC(=O)C(=O)NCC(C)O)cc1Cl", "note": "(stereo unspecified)", "inhibition": "inconclusive: 14%"}, {"smiles": "CCN(Cc1noc(C2CC2)n1)C(=O)c1ccc2c(c1)OCCN2C", "inhibition": "inactive"}, {"smiles": "COc1cccc2cc(C(=O)Nc3ccccc3)c(=Nc3ccccc3F)oc12", "inhibition": "inconclusive: 19%"}, {"smiles": "COC(=O)[C@@H]1Cc2ncn(Cc3ccc(Cl)cc3)c2CN1Cc1ccc(F)cc1", "inhibition": "inactive"}, {"smiles": "Cc1ccc(N2C(=O)[C@H]3C4c5ccccc5C(CO)(c5ccccc54)[C@H]3C2=O)c(C)c1", "inhibition": "inconclusive: 11%"}, {"smiles": "O=C(NCCCN1CCOCC1)C1C2C=CC3(CN(Cc4ccccc4Cl)C(=O)C13)O2", "note": "(stereo unspecified)", "inhibition": "inactive"}, {"smiles": "O=C(Cn1nc(-c2ccccc2)ccc1=O)NC1CCCCCC1", "inhibition": "inconclusive: 20%"}]}]}
